Measurements published in patent publication US20070036789A1 (NATIONAL CANCER CENTER, published 2007).
No constants are given. Whether binding was seen depends on the method and setting. Some binding calls cover weakened binding; strength is not graded here.

Chains of the proteins cited; added tags and fusions are not shown. Residues count along the entry.
UniProt P08581, residues 25-932: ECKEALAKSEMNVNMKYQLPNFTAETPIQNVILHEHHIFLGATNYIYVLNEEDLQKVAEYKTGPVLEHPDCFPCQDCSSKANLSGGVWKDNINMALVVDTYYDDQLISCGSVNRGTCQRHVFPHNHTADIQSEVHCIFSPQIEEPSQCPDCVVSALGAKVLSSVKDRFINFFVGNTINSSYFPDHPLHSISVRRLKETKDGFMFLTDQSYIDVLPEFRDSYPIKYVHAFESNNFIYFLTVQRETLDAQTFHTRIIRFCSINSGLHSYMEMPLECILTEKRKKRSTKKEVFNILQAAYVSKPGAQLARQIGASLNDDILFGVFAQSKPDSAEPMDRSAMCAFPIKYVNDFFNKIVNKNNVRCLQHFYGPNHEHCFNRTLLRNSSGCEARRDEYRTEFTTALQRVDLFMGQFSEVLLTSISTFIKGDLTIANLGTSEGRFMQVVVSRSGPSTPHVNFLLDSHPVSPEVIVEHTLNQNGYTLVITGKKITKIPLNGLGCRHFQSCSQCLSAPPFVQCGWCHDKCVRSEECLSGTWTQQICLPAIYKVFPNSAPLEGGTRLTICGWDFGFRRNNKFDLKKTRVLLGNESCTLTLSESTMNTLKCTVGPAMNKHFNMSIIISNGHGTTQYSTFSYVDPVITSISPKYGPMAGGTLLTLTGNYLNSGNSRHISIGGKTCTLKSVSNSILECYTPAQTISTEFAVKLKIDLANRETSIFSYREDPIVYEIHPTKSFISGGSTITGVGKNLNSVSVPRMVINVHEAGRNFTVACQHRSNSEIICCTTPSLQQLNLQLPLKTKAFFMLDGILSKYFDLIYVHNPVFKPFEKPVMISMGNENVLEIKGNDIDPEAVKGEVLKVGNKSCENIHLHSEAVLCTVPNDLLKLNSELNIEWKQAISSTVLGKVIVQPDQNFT

Molecular target: T1, c-Met (UniProt P08581 25-932, limits assumed)
T1 construct: also called HGF receptor
Assay: phage ELISA on coated c-Met, anti-M13 HRP detection

B1: phage containing the peptide of SEQ ID NO: 33 (peptide)
peptide: KSLSRHDHIHHH
In the case of B1, the binding is reported as “binds”.

B2: phage containing the peptide of SEQ ID NO: 32 (peptide)
peptide: HHPHFKPVSNSR
In the case of B2, the binding is reported as “binds”.
